In the experiment the test system is P388 leukemia ip, CD2F1 mice, survival T/C. The experiment in a line: NCI In Vivo Anticancer Drug Screen. Data for tumor model P388 Leukemia (intraperitoneal) in CD2F1 (CDF1) mice. The settings on record: T/C endpoint: median survival time, higher T/C = longer survival.
The mark [1] stands for this setting: dose: 12.5 mg/kg/injection, schedule: Q01DX009 (ip), vehicle: Klucel (hydroxypropylcellulose) (HPC).
[2] abbreviates: dose: 25.0 mg/kg/injection, schedule: Q01DX009 (ip), vehicle: Klucel (hydroxypropylcellulose) (HPC).
Setting [3] is: dose: 50.0 mg/kg/injection, schedule: Q01DX009 (ip), vehicle: Klucel (hydroxypropylcellulose) (HPC).
Where [4] appears, read: dose: 100.0 mg/kg/injection, schedule: Q01DX009 (ip), vehicle: Klucel (hydroxypropylcellulose) (HPC).
Setting [5] is: dose: 60.0 mg/kg/injection, schedule: Q01DX005 (ip), vehicle: Klucel (hydroxypropylcellulose) (HPC).
The mark [6] stands for this setting: dose: 50.0 mg/kg/injection, schedule: Q01DX009 (ip), vehicle: saline with Tween-80.
Where [7] appears, read: dose: 100.0 mg/kg/injection, schedule: Q01DX009 (ip), vehicle: saline with Tween-80.
Where [8] appears, read: dose: 50.0 mg/kg/injection, schedule: Q01DX005 (ip), vehicle: Klucel (hydroxypropylcellulose) (HPC).
Setting [9] is: dose: 100.0 mg/kg/injection, schedule: Q01DX005 (ip), vehicle: Klucel (hydroxypropylcellulose) (HPC).
[10] abbreviates: dose: 200.0 mg/kg/injection, schedule: Q01DX005 (ip), vehicle: Klucel (hydroxypropylcellulose) (HPC).
Setting [11] is: dose: 200.0 mg/kg/injection, schedule: Q01DX005 (ip), vehicle: saline with Tween-80.
Setting [12] is: dose: 1.2 mg/kg/injection, schedule: Q01DX005 (ip), vehicle: acid diluted with saline.

SMILES strings stand for the structures. The list shows only some results of the screen, not a fair sample: it gathers tests that were run many times, whatever their T/C, doses with no T/C, and many T/C values between a quarter and a half above the control. Further doses and runs are listed elsewhere. T/C gives the treated animals as a percentage of the vehicle group. Some doses have a count of surviving animals in place of a T/C: the source holds a T/C of zero for them, seemingly a mark for toxic or unscored doses. Some survivor counts are full or nearly so, which does not show that the dose was tolerated: survival well below the control is almost never listed, so the zero probably covers shortened survival too. Survivors were counted at the toxicity check, usually on the fifth day, unless a day is given; later deaths do not show. Schedules are NCI's codes, taken here to give the interval after Q, in days (D) or hours (H), and the number of doses after X. Some entries were tested several times; the values are given in rising order. For survival time, this PubChem deposit counts one and a half times the control or more as active, and values a quarter to a half above the control carry no call in these data; other NCI protocols may use other cut-offs. Some T/C values are followed by the survivors on the day toxicity was checked, most often the fifth; without a count, all were alive then.

Among the data in PubChem BioAssay AID330 (DTP/NCI, 2004) are T/C and survivor count values, retold here.

Turning to `[Cl][Pt+2][Cl].[NH-]c1cccc(C(F)(F)F)c1.[NH-]c1cccc(C(F)(F)F)c1`, the T/C (dose: 6.25 mg/kg/injection, schedule: Q01DX009 (ip), vehicle: Klucel (hydroxypropylcellulose) (HPC)) was 129 % of control; the T/C under setting [1] was 127 and 132 % of control; the T/C under setting [2] was 126 % of control. Moreover, the survivor count under setting [3] is 2 of 6 and the survivor count under setting [4] is 0 of 6.

As for `NNC(=O)CCCCl`, for the setting “dose: 240.0 mg/kg/injection, schedule: Q01DX005 (ip), vehicle: saline”, the survivor count is recorded as 2 of 6.

In the case of `[Cl][Sn]([Cl])([c]1ccccc1)[c]1ccccc1.c1ccc2nc(-c3ccc4ccccc4n3)ccc2c1`, the T/C under setting [5] was 132 % of control [5 of 6 alive]. The survivor count is, setting by setting: under setting [5], 2 of 6 and 6 of 6; (dose: 120.0 mg/kg/injection, schedule: Q01DX005 (ip), vehicle: Klucel (hydroxypropylcellulose) (HPC)) 1 of 6; (dose: 240.0 mg/kg/injection, schedule: Q01DX005 (ip), vehicle: Klucel (hydroxypropylcellulose) (HPC)) 0 of 6.

Turning to `COc1cccc2c1C(=O)c1c(O)c3c(c(O)c1C2=O)C[C@@](O)(C(=O)CO)C[C@@H]3OC1CC(NCC#N)C(O)C(C)O1` (stereo partly drawn), the T/C was 128 % of control (dose: 4.0 mg/kg/injection, schedule: Q04DX003 (ip), vehicle: saline + Tween-80 + alcohol); 144 % of control (dose: 8.0 mg/kg/injection, schedule: Q04DX003 (ip), vehicle: saline + Tween-80 + alcohol); 137 % of control (dose: 16.0 mg/kg/injection, schedule: Q04DX003 (ip), vehicle: saline + Tween-80 + alcohol); 133 % of control (dose: 16.0 mg/kg/injection, schedule: Q04DX003 (ip), vehicle: saline + alcohol). Further, the survivor count reads like this: (dose: 64.0 mg/kg/injection, schedule: Q04DX003 (ip), vehicle: saline + Tween-80 + alcohol) 2 of 5 on day 9; (dose: 64.0 mg/kg/injection, schedule: Q04DX003 (ip), vehicle: saline + alcohol) 6 of 6 on day 9.

Regarding `BrC1C2CCC3OC3C12` (stereo not drawn), where the note is “dose: 240.0 mg/kg/injection, schedule: Q01DX005 (ip), vehicle: saline with Tween-80”, the survivor count is recorded as 4 of 6.

As for `O=[N+]([O-])c1cnccc1Nc1ccncc1`, the survivor count (dose: 400.0 mg/kg/injection, schedule: Q01DX001 (ip), vehicle: saline with Tween-80) is reported as 0 of 6.

Turning to `Clc1ccc(CBr)c2ccccc12`, the survivor count reads like this: under setting [6], 6 of 6; under setting [7], 0 of 6; (dose: 200.0 mg/kg/injection, schedule: Q01DX009 (ip), vehicle: saline with Tween-80) 0 of 6.

In the case of `COc1cc([C@@H]2c3cc4c(cc3[C@H](OC(=O)c3ccncc3)[C@H]3COC(=O)[C@H]23)OCO4)cc(OC)c1OC`, the survivor count runs as follows: under setting [8], 0 of 5; under setting [9], 0 of 5; under setting [10], 0 of 5.

As for `COC(=O)[CH2][Sn]([CH2]C(=O)OC)([CH]1CCCCC1)[CH]1CCCCC1`, the survivor count reads like this: (dose: 12.5 mg/kg/injection, schedule: Q01DX005 (ip), vehicle: Klucel (hydroxypropylcellulose) (HPC)) 6 of 6; (dose: 25.0 mg/kg/injection, schedule: Q01DX005 (ip), vehicle: Klucel (hydroxypropylcellulose) (HPC)) 2 of 6; under setting [8], 0 of 6; under setting [9], 0 of 6; under setting [10], 0 of 6.

For `NC(=O)c1cc([N+](=O)[O-])cc([N+](=O)[O-])c1Cl`, the survivor count by setting is: under setting [1], 3 of 6; under setting [2], 0 of 6; under setting [3], 0 of 6; under setting [4], 0 of 6.

For `c1nnc(NC(Nc2nncs2)C2CCCCC2)s1`, for the setting “dose: 60.0 mg/kg/injection, schedule: Q01DX005 (ip), vehicle: saline with Tween-80”, the survivor count was 6 of 6.

For the compound `O=C1c2ccccc2C(=O)N1c1ccc(Nc2nc(Nc3ccc(N4C(=O)c5ccccc5C4=O)cc3)nc(N(C3CCCCC3)C3CCCCC3)n2)cc1`, the survivor count under setting [11] is listed as 6 of 6.

With `CC1=NN(C(=O)c2ccc(Cl)cc2)C(=O)C1N=Nc1ccc(S(=O)(=O)Nc2ccccn2)cc1` (stereo not drawn), the survivor count under setting [11] is 6 of 6.

As to `O=C1C2CC3CC1CC(Cl)(C3)C2`, under setting [11], the survivor count is reported as 0 of 5.

Turning to `CCC12NC(=O)NC1(C)NC(=O)N2` (stereo not drawn), under “dose: 37.5 mg/kg/injection, schedule: Q01DX009 (ip), vehicle: saline with Tween-80”, the survivor count is on record as 3 of 6.

For `NCCCNc1cc(O)cc2cccnc12`, the survivor count (dose: 200.0 mg/kg/injection, schedule: Q01DX005 (ip), vehicle: saline) was 2 of 5.

Take `COC1=C(C)C(=O)C2=C(C1=O)C(CO)N1C(C#N)C3CC4C(C1C2N1CCOC41)N3C` (stereo not drawn): the T/C is, setting by setting: (dose: 0.3 mg/kg/injection, schedule: Q01DX005 (ip), vehicle: acid diluted with saline) 135 % of control; (dose: 0.6 mg/kg/injection, schedule: Q01DX005 (ip), vehicle: acid diluted with saline) 130 % of control; under setting [12], 146 % of control [5 of 6 alive]; (dose: 1.5 mg/kg/injection, schedule: Q01DX005 (ip), vehicle: saline + alcohol) 147 % of control. Also, the survivor count is, setting by setting: under setting [12], 4 of 6; (dose: 1.6 mg/kg/injection, schedule: Q01DX005 (ip), vehicle: saline + alcohol) 4 of 6; (dose: 2.4 mg/kg/injection, schedule: Q01DX005 (ip), vehicle: acid diluted with saline) 0 of 6; (dose: 2.5 mg/kg/injection, schedule: Q01DX005 (ip), vehicle: acid diluted with saline) 1 of 6; (dose: 3.0 mg/kg/injection, schedule: Q01DX005 (ip), vehicle: saline + alcohol) 0 of 5; (dose: 3.2 mg/kg/injection, schedule: Q01DX005 (ip), vehicle: saline + alcohol) 0 of 6. Further, the survivor count runs as follows: (dose: 5.0 mg/kg/injection, schedule: Q01DX005 (ip), vehicle: acid diluted with saline) 0 of 6; (dose: 6.0 mg/kg/injection, schedule: Q01DX005 (ip), vehicle: saline + alcohol) 0 of 5; (dose: 10.0 mg/kg/injection, schedule: Q01DX005 (ip), vehicle: acid diluted with saline) 0 of 6; (dose: 20.0 mg/kg/injection, schedule: Q01DX005 (ip), vehicle: acid diluted with saline) 0 of 6.

`Cc1cc2cc3cc(C)c(N)cc3nc2cc1N`: the T/C is 130 and 134 % of control (dose: 12.5 mg/kg/injection, schedule: Q01DX009 (ip), vehicle: saline with Tween-80); 136 and 141 % of control (dose: 25.0 mg/kg/injection, schedule: Q01DX009 (ip), vehicle: saline with Tween-80). In addition, the survivor count runs as follows: under setting [6], 6 of 6; under setting [7], 4 of 6; (dose: 100.0 mg/kg/injection, schedule: Q01DX009 (ip), vehicle: saline) 6 of 6; (dose: 200.0 mg/kg/injection, schedule: Q01DX009 (ip), vehicle: saline) 4 of 6; (dose: 400.0 mg/kg/injection, schedule: Q01DX009 (ip), vehicle: saline) 0 of 6.

As to `CCN(CC)C(C)COC(=O)c1ccc(N)cc1` (stereo not drawn), the survivor count (dose: 25.0 mg/kg/injection, schedule: Q01DX009 (ip), vehicle: saline) is reported as 6 of 6.

For `Cc1c(C)[n+](=O)c2ccc(/C=N/N3CCOC3=O)cc2n1[O-]`, the survivor count is recorded as 6 of 6 under setting [3] and 6 of 6 (dose: 200.0 mg/kg/injection, schedule: Q01DX009 (ip), vehicle: Klucel (hydroxypropylcellulose) (HPC)).
